Earlier results on 1 compound are cited in patent publication US4944949A, “Pharmaceutical delivery systems” (priority 1986, dated 1990).

The conditions of data set [1]: in vivo.

As for `COc1ccc2cc([C@H](C)C(=O)O)ccc2c1` [Naproxen], the “bound to plasma proteins” value in the data set on plasma proteins is “more than 99%”. Moreover, in data set [1], the absorption result is on record as “readily absorbed”.
